Experiments:
[1] = Fmoc solid-phase peptide synthesis; MBHA-resin (BOC); FMOC-Am-resin (FMOC); hydroxymethyl resin / diamine-carbonylbenzyloxy-resin; BOP/HOBt/NMM; BOP-Cl/DIPEA; HBTU/DIPEA; details: whole synthesis, TFA salt
[2] = Fmoc solid-phase peptide synthesis; Am-resin; BOP/HOBt/NMM; BOP-Cl/DIPEA; HBTU/DIPEA; details: whole synthesis, scale approx. 0.25 mmol, TFA salt
[3] = Boc solid-phase peptide synthesis; MBHA-resin; BOP/HOBt/NMM; BOP-Cl/DIPEA; HBTU/DIPEA; details: whole synthesis, TFA salt
[4] = solid-phase peptide synthesis; details: whole synthesis, TFA salt

(4-aminobutanoyl)-DβNal-DβNal-Phe-Lys-amide
crude mass ([1]; scale 0.32 mmol): 245 mg

(5-Aminovaleryl)-DPhe-βNal-βNal-Lys-amide
crude mass [2]: 100 mg

(5-aminovaleryl)-(N-Me-DβNal)-DβNal-Phe-Lys-amide
crude mass ([3]; scale 0.33 mmol): 193 mg

(inip)-(N-Me-DβNal)-DTrp-Phe-Lys-amide
crude mass ([1]; scale approx. 0.4 mmol): 75 mg | isolated mass ([1]; scale approx. 0.4 mmol): 11 mg

(inip)-(N-Me-DβNal)-DβNal-Phe-Lys-amide
crude mass ([3]; scale approx. 0.3 mmol): 250 mg

(inip)-DβNal-(D-Trp)-Phe-amide
crude mass ([3]; scale approx. 1.14 mmol): 240 mg

(inip)-DβNal-(N-Me-DβNal)-Phe-Lys-amide
crude mass ([3]; scale approx. 0.30 mmol): 200 mg

(inip)-DβNal-DβNal-Phe
crude purity (method not given) [4]: approximately 90%

(inip)-DβNal-DβNal-Phe-amide
crude mass ([3]; scale 2.28 mmol): 560 mg | isolated mass ([3]; scale 2.28 mmol): 436 mg

[4-(N-methylamino)butanoyl]-DβNal-DβNal-Phe-Lys-amide
crude mass ([1]; scale 0.17 mmol): 120 mg

Source: patent US7094869B2 (Genentech, Inc., priority 1994, dated 2006)
